Results from PMC7503767, “Alkoxyamines Designed as Potential Drugs against Plasmodium and Schistosoma Parasites” (Molecules, 2020).

system: Vero cells; assay: Cytotoxicity assay (MTT); conditions: ratio cytotoxicity (Vero)/activity on Plasmodium
Method: Vero cells were cultured in MEM (Dutscher, Brumath, France) supplemented with 10% fetal bovine serum, 1× non-essential amino acids, 100 U/mL, 100 µg/mL penicillin/streptomycin, and 2 mM L-glutamine at 37 °C in a humidified 5% CO2 atmosphere. […] At this time, each well was microscope-examined for detection of possible precipitate formation prior to remove the supernatant by flicking the plate. 100 µL of a 0.5 mg/mL PBS-dissolved MTT tetrazolium (stock solution at 5 mg/mL) was then added to each well [48]. The plates were then incubated for 1 h at 37 °C and 5% CO2 prior to removing the supernatant and adding 100 µL of DMSO. Plates were gently shaken to dissolve formazan crystals resulting from the MTT tetrazolium reduction by living cells and read at 570 nm with BioTek µQuant Microplate Spectrophotometer.

SMILES | Selectivity Index
CCOP(=O)(OCC)C(N(OC(C)c1ccc2ccc3cccnc3c2n1)C(C)(C)C)C(C)(C)C (stereo not shown) [1J] | 2
CCOP(=O)(OCC)C(N(OC(C)c1ccnc2c1ccc1cccnc12)C(C)(C)C)C(C)(C)C (stereo not shown) [1K] | 1
CCOP(=O)(OCC)C(N(OC(C)c1ccc2ccc3cccnc3c2n1)C(C)(C)CO)C(C)(C)C (stereo not shown) [2J] | 3
CC(ON1C(C)(C)CCCC1(C)C)c1ccncc1 (stereo not shown) [9a] | 3
